# Part of at least one peptide drawing is inferred or uncertain, most often the ends.
# System: adult male mice (CD-1)
# Test: Acute study, animals sacrificed 24 h after α-amanitin: plasma aminotransferases, liver and kidney histology
# Assay type: in vivo
# Conditions: 24 h after α-amanitin 0.33 mg/kg i.p.; polymyxin B 3×2.5 mg/kg at 4, 8 and 12 h
# Description: For this purpose, adult male mice (CD-1) were used. Two experiments were performed to test polymyxin B effectiveness: polymyxin B was administered concomitantly with α-amanitin and four hours after administration of α-amanitin. Concomitant therapy consisted of 0.33 mg/kg of α-amanitin followed by 2.5 mg/kg of polymyxin B (one administration). In the second experiment, three 2.5 mg/kg administrations of polymyxin B were used in different time-points [4, 8 and 12 h, intraperitoneal (i.p.) administration] after one α-amanitin (dose 0.33 mg/kg i.p.) exposure, as to mimic the clinical scenario of late intoxication diagnosis; human intoxication is often only found hours later when symptoms become clinically relevant. […] Moreover 50% of animal exposed to polymyxin B 4, 8 and 12 h after α-amanitin survived […]. In order to validate and unveil some mechanisms involved, an acute study with the same doses and scheme was performed, with animals being sacrificed 24 h after α-amanitin administration.
# FIG. 2. Plasma levels of Aspartate aminotransferase (AST) and alanine aminotransferase (ALT) in control, polymyxin B (3×2.5 mg/kg) (Pol), α-amanitin (Ama) and α-amanitin+polymyxin B (3×2.5 mg/kg) (Ama+Pol) groups. Results are presented as means±standard deviation (SD), and were obtained from 4-5 animals from each treatment. Statistical comparisons were made using Kruskal-Wallis ANOVA on Ranks followed by the Dunn's post hoc test (*p<0.05, Ama vs. control; #p<0.05, Ama vs. Ama+Pol).
# FIG. 3. Liver histopathology by light microscopy. (A) Light micrograph (40×) from α-amanitin treated-group. The presence of cellular oedema (1), cytoplasmic vacuolization (2), interstitial inflammatory cell infiltration (3), as well as some necrotic zones can be seen (4). (B) Light micrograph (40×) from α-amanitin+polymixin B (3×2.5 mg/kg) group. […] Increase number interstitial inflammatory cell was still observed.
# FIG. 4. Kidney histopathology by light microscopy (A) Light micrograph (10×) from α-amanitin-treated group. […]
smiles,measurement,value
CC[C@H](C)[C@@H]1NC(=O)CNC(=O)[C@@H]2Cc3c([nH]c4cc(O)ccc34)[S@+]([O-])C[C@H](NC(=O)CNC1=O)C(=O)N[C@@H](CC(N)=O)C(=O)N1C[C@H](O)C[C@H]1C(=O)N[C@@H]([C@@H](C)[C@@H](O)CO)C(=O)N2 [α-amanitin],kidney histology (light microscopy),degenerative changes
same,liver histology (light microscopy),"presence of cellular oedema, cytoplasmic vacuolization and interstitial inflammatory cell infiltration, as well as some necrotic zones"
same,"plasma aminotransferases (AST, ALT)",increased
